# Literature values, collected in patent publication US20240024262A1, “USE OF VALERIC ACID IN PREPARATION OF DRUG FOR PREVENTING AND TREATING DIABETES” (Harbin Medical University, priority 2022, published 2024).
# Some results were stated once for a whole list of compounds, not compound by compound.
# Tested on: human β cells
# Details: Ki67 or BrdU experiment; cited from earlier work
substance,measurement,value
osteoprotegerin,cell proliferation rate,0.5-1%
